Laboratory results: patent publication EP0753009B1, “MALARIA PEPTIDES” (Oxxon Pharmaccines Limited, priority 1994, dated 2001)
At least one peptide structure holds a part that was inferred or is arguable (an end, a ring closure or a residue). Residues, ends and D or L forms follow the SMILES beside them.

Key:
[1] = system: HLA matched or autologous B cell line targets pre-pulsed with the peptide; test: Standard CTL chromium release assay with restimulated lymphocytes from malaria-exposed Gambians (secondary CTL response); type: cell-based, humans; conditions: for recognition of peptide by CTL from at least one individual: further studies, malaria-exposed Gambians with HLA-A2; for lysis of peptide-pulsed target cells: adult Z60, single peptides, 10% or greater specific lysis regarded as significant
Experimental: Peptides shown to bind to a particular HLA class I allele were tested for CTL recognition in assays using lymphocytes from malaria-exposed Gambians, as described previously^1. A minority of peptides, synthesized to correspond to a peptides binding motif were not tested in the relevant assembly assay but tested only for CTL recognition. Cells from 82 adult Gambians and 53 Gambian children, all exposed to malaria, were used in the course of these studies. The children and adults were HLA typed using cellular or molecular techniques as described previously^1. Peptides were incubated with cells either singly, or in pools as described^1 at concentrations of 10-100µM. Peptides could either be left with the cells for the duration of restimulation (as reported^1) or washed off after an hour. Cells were cultured for 1-3 weeks before a standard CTL chromium release assay^1 was performed using HLA matched or autologous B cell line targets pre-pulsed with the peptide to be tested. Peptides were tested either singly or in pools for CTL recognition.

[2] = system: Peripheral blood mononuclear cells from two HLA-A2 individuals never exposed to malaria; test: In vitro induction of primary CTL responses from peripheral blood mononuclear cells of malaria-unexposed HLA-A2 individuals, read by standard CTL assay; type: cell-based
[3] = system: HLA-A2; test: HLA assembly assay (binding assay) using the untransfected T2 cell line
[4] = primary CTL from malaria-unexposed individuals

## CC[C@H](C)[C@H](NC(=O)[C@@H](NC(=O)[C@H](CCCCN)NC(=O)[C@H](CC(C)C)NC(=O)[C@@H](N)Cc1ccc(O)cc1)[C@@H](C)O)C(=O)N[C@@H](CCC(N)=O)C(=O)N[C@@H](CC(N)=O)C(=O)N[C@@H](CO)C(=O)N[C@@H](CC(C)C)C(=O)O [cp36] (H-YLKTIQNSL-OH)
[1]
  recognition of peptide by CTL from at least one individual: recognise
[2]; effector to target ratio of 5-10:1, prepulse 20-100µM peptide, restimulation 20µM
  wells with peptide specific lysis in excess of 10%: 5 - 15%
[2]; malaria un-exposed individuals
  generation of CTL in vitro against the peptide: CTL may be generated in vitro
[2]; malaria-unexposed individuals
  induction of a primary CTL response: capable of inducing a primary CTL response
[2]; [4]
  HLA restriction of CTL responses: HLA-A2.1 restricted
  character of CTL activity: peptide-specific and dependent on CD8^+ lymphocytes

## CC[C@H](C)[C@H](NC(=O)[C@H](CCCCN)NC(=O)[C@H](CCC(N)=O)NC(=O)[C@H](CC(C)C)NC(=O)[C@@H](N)Cc1ccc(O)cc1)C(=O)N[C@@H](CCC(N)=O)C(=O)N[C@@H](CC(N)=O)C(=O)N[C@@H](CO)C(=O)N[C@@H](CC(C)C)C(=O)O [cp37] (H-YLQKIQNSL-OH)
[1]
  recognition of peptide by CTL from at least one individual: recognise

## CC[C@H](C)[C@H](NC(=O)[C@H](CCCCN)NC(=O)[C@H](CCC(N)=O)NC(=O)[C@H](CC(C)C)NC(=O)[C@@H](N)Cc1ccc(O)cc1)C(=O)N[C@@H](CCCCN)C(=O)N[C@@H](CC(N)=O)C(=O)N[C@@H](CO)C(=O)N[C@@H](CC(C)C)C(=O)O [cp38] (H-YLQKIKNSL-OH)
[1]
  recognition of peptide by CTL from at least one individual: recognise

## CC[C@H](C)[C@H](N)C(=O)N[C@@H](CC(C)C)C(=O)N[C@@H](Cc1ccc(O)cc1)C(=O)N[C@H](C(=O)N[C@@H](CO)C(=O)N[C@@H](Cc1ccccc1)C(=O)N[C@@H](Cc1ccc(O)cc1)C(=O)N[C@@H](Cc1ccccc1)C(=O)N[C@H](C(=O)O)[C@@H](C)CC)[C@@H](C)CC [ls10] (H-ILYISFYFI-OH)
[3]
  binding to HLA-A2 in the HLA assembly assay: bind

## CC[C@H](C)[C@H](NC(=O)[C@H](Cc1ccccc1)NC(=O)[C@H](Cc1ccc(O)cc1)NC(=O)[C@H](Cc1ccccc1)NC(=O)[C@H](CO)NC(=O)[C@@H](NC(=O)[C@@H](N)Cc1ccc(O)cc1)[C@@H](C)CC)C(=O)N[C@@H](CC(C)C)C(=O)N[C@H](C(=O)O)C(C)C [ls11] (H-YISFYFILV-OH)
[3]
  binding to HLA-A2 in the HLA assembly assay: bind

## CC[C@H](C)[C@H](NC(=O)CN)C(=O)N[C@@H](Cc1ccc(O)cc1)C(=O)N[C@@H](CCCCN)C(=O)N[C@@H](CCC(=O)O)C(=O)N[C@@H](CC(C)C)C(=O)N[C@@H](CCC(=O)O)C(=O)N[C@@H](CC(=O)O)C(=O)N[C@@H](CC(C)C)C(=O)O [ls19] (H-GIYKELEDL-OH)
[3]
  binding to HLA-A2 in the HLA assembly assay: bind

## CC[C@H](C)[C@H](NC(=O)[C@H](CCC(=O)O)NC(=O)[C@H](CC(N)=O)NC(=O)[C@H](CC(=O)O)NC(=O)CNC(=O)[C@H](CC(=O)O)NC(=O)[C@H](Cc1ccccc1)NC(=O)[C@@H](NC(=O)[C@@H](N)Cc1c[nH]cn1)[C@@H](C)CC)C(=O)O [ls23] (H-HIFDGDNEI-OH)
[3]
  binding to HLA-A2 in the HLA assembly assay: bind

## CC(C)C[C@H](NC(=O)[C@H](Cc1ccc(O)cc1)NC(=O)[C@H](CCCCN)NC(=O)[C@@H](NC(=O)[C@H](CC(N)=O)NC(=O)CNC(=O)[C@H](CC(C)C)NC(=O)[C@@H](N)Cc1c[nH]cn1)C(C)C)C(=O)N[C@H](C(=O)O)C(C)C [tr26] (H-HLGNVKYLV-OH)
[3]
  binding to HLA-A2 in the HLA assembly assay: bound
[1]
  lysis of peptide-pulsed target cells: not
  recognition of peptide by CTL from at least one individual: recognise

## CC[C@H](C)[C@H](NC(=O)[C@H](CO)NC(=O)CNC(=O)[C@H](CO)NC(=O)[C@H](CS)NC(=O)[C@H](CC(=O)O)NC(=O)[C@H](CCSC)NC(=O)[C@H](CC(C)C)NC(=O)[C@@H](N)CC(C)C)C(=O)O [tr29] (H-LLMDCSGSI-OH)
[3]
  binding to HLA-A2 in the HLA assembly assay: bound
[1]
  lysis of peptide-pulsed target cells: nor
  recognition of peptide by CTL from at least one individual: recognise

## CC[C@H](C)[C@H](NC(=O)CN)C(=O)N[C@@H](C)C(=O)NCC(=O)NCC(=O)N[C@@H](CC(C)C)C(=O)N[C@@H](C)C(=O)N[C@@H](CC(C)C)C(=O)N[C@@H](CC(C)C)C(=O)O [tr39] (H-GIAGGLALL-OH)
[3]
  binding to HLA-A2 in the HLA assembly assay: bound
[1]
  lysis of peptide-pulsed target cells: significant lysis
[1]; malaria-exposed Gambians
  HLA restriction of epitope: HLA-A2-restricted epitope
